The list shows a part of the results.
Compound: CS(=O)(=O)c1ccc(-c2cnc(N)c(C(=O)Nc3ccccc3)n2)cc1
Assay: log2 fold change, soluble protein after heating vs DMSO (PISA); higher = thermal stabilisation; K562 cells, 10 uM, 30 min; active = over 0.2 and 3.5 SD of the protein, either way, in both replicates (recomputed)
Method in brief: (§1)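 Aliquots of K562 cells (2×10^6 cells/mL) treated with 10 μM compound for 30 min were heated for 3 min over 48°C-58°C. After pooling and extraction in PBS with 0.5% NP-40 at 4°C, soluble protein from a 21,000xg, 90 min spin was quantified by TMTpro 16plex LC-MS/MS with channel sums equalised. Thermal stability is expressed against control samples, from duplicates, as a log2 fold change.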

By UniProt entry, the sequences of proteins in these tests, tags left out. Where a name states a change or a piece, a line headed by the entry shows the natural chain unless it says otherwise.
UniProt O95476: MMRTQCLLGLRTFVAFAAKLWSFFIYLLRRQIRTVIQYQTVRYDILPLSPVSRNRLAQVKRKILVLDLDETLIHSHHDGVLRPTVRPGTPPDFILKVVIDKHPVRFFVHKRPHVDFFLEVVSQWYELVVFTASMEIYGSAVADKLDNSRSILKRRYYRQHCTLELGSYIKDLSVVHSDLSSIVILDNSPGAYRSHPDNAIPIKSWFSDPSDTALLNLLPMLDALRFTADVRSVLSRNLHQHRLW
UniProt Q8WV16: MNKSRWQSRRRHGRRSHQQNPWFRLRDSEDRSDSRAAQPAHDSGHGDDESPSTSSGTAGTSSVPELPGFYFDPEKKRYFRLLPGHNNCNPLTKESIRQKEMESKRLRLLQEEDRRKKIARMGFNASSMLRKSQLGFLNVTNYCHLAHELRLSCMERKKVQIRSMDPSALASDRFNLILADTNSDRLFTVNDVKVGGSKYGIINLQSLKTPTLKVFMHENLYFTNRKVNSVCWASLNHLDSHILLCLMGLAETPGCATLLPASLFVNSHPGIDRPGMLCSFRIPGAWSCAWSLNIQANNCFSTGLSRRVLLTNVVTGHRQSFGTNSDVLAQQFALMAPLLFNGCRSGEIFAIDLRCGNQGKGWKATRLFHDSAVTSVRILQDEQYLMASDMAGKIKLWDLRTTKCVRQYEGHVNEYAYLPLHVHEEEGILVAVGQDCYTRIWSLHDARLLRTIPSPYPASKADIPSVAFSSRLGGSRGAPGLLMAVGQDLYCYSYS
UniProt O95715: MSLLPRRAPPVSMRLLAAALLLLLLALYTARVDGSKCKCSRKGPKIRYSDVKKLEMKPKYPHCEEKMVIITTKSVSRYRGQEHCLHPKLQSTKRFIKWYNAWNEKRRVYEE
UniProt Q16527: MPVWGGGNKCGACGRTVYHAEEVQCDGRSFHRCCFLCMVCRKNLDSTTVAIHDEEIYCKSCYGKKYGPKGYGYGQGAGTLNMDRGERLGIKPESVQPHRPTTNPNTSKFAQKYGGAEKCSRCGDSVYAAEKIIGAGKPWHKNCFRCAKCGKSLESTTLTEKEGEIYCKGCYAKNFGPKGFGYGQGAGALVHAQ
UniProt Q15828: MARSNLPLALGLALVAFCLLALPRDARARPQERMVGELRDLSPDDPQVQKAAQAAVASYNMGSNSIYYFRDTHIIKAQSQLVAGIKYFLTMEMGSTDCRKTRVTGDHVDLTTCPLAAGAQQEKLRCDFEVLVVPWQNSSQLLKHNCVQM
UniProt P01037: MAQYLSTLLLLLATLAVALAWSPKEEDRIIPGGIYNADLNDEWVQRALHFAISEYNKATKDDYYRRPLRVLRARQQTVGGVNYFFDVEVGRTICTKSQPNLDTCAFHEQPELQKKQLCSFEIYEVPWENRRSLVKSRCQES
UniProt P00167, whole entry, looked up: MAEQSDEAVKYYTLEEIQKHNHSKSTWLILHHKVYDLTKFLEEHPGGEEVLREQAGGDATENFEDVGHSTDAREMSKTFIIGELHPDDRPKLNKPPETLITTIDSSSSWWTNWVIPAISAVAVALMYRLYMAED
UniProt Q9BWK5: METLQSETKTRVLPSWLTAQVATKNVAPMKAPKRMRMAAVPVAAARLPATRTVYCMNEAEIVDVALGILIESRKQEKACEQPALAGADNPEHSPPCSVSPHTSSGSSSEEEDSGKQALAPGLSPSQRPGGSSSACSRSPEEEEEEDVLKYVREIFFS
UniProt Q99418: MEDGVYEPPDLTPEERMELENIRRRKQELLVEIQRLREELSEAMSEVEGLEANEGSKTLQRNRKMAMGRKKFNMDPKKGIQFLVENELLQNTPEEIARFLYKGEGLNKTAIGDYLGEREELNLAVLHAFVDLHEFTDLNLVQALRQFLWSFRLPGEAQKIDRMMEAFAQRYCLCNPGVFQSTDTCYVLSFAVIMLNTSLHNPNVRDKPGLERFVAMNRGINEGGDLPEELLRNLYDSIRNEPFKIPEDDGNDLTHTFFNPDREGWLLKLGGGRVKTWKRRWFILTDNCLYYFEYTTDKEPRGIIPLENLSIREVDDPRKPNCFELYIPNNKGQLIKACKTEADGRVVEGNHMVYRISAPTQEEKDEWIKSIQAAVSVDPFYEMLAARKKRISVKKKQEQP
UniProt Q9BTE7: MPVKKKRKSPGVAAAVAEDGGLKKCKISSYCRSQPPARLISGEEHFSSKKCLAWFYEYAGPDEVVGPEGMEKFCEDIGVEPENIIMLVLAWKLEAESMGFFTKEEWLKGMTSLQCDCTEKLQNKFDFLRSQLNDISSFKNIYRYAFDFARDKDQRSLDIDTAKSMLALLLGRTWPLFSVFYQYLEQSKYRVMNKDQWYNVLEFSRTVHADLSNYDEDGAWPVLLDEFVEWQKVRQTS
UniProt Q05D32: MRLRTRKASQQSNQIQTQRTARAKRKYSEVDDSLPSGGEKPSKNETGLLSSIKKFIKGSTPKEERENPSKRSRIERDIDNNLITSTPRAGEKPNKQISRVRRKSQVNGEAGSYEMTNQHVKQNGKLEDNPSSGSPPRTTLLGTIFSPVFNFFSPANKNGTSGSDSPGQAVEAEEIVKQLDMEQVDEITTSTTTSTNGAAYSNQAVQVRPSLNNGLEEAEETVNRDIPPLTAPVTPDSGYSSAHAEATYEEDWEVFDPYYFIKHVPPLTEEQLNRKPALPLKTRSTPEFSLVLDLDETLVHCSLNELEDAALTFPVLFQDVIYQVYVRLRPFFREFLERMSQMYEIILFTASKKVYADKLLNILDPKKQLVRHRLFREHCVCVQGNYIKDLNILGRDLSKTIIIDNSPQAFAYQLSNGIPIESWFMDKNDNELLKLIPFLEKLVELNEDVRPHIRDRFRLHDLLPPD
UniProt Q9UBX1: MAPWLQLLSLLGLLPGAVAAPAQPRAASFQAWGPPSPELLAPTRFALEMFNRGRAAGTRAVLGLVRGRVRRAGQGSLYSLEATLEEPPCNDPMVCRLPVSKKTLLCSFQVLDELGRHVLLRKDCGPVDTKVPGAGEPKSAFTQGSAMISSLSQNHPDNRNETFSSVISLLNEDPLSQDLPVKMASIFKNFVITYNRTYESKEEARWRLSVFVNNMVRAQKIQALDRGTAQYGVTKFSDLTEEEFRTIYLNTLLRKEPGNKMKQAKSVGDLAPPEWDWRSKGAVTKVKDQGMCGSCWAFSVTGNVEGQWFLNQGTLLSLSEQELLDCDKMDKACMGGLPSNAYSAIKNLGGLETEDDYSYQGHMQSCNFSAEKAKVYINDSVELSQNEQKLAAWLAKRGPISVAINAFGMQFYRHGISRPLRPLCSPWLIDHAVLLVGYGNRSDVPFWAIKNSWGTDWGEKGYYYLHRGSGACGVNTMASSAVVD
UniProt Q5H9S7: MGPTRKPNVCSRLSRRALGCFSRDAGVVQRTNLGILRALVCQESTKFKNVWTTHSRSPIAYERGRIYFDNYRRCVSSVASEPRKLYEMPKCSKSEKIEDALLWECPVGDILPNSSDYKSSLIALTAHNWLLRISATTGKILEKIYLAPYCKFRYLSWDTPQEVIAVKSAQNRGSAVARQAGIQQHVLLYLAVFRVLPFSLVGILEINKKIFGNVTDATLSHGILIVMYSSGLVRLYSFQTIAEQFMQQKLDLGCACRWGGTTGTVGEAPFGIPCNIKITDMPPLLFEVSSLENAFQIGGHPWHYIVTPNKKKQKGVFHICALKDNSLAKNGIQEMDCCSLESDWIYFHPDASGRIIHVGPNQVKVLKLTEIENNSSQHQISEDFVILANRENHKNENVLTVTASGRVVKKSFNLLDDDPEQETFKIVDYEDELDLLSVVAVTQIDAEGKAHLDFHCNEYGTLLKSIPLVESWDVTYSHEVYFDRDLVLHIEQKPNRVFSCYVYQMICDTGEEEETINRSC
UniProt Q14999: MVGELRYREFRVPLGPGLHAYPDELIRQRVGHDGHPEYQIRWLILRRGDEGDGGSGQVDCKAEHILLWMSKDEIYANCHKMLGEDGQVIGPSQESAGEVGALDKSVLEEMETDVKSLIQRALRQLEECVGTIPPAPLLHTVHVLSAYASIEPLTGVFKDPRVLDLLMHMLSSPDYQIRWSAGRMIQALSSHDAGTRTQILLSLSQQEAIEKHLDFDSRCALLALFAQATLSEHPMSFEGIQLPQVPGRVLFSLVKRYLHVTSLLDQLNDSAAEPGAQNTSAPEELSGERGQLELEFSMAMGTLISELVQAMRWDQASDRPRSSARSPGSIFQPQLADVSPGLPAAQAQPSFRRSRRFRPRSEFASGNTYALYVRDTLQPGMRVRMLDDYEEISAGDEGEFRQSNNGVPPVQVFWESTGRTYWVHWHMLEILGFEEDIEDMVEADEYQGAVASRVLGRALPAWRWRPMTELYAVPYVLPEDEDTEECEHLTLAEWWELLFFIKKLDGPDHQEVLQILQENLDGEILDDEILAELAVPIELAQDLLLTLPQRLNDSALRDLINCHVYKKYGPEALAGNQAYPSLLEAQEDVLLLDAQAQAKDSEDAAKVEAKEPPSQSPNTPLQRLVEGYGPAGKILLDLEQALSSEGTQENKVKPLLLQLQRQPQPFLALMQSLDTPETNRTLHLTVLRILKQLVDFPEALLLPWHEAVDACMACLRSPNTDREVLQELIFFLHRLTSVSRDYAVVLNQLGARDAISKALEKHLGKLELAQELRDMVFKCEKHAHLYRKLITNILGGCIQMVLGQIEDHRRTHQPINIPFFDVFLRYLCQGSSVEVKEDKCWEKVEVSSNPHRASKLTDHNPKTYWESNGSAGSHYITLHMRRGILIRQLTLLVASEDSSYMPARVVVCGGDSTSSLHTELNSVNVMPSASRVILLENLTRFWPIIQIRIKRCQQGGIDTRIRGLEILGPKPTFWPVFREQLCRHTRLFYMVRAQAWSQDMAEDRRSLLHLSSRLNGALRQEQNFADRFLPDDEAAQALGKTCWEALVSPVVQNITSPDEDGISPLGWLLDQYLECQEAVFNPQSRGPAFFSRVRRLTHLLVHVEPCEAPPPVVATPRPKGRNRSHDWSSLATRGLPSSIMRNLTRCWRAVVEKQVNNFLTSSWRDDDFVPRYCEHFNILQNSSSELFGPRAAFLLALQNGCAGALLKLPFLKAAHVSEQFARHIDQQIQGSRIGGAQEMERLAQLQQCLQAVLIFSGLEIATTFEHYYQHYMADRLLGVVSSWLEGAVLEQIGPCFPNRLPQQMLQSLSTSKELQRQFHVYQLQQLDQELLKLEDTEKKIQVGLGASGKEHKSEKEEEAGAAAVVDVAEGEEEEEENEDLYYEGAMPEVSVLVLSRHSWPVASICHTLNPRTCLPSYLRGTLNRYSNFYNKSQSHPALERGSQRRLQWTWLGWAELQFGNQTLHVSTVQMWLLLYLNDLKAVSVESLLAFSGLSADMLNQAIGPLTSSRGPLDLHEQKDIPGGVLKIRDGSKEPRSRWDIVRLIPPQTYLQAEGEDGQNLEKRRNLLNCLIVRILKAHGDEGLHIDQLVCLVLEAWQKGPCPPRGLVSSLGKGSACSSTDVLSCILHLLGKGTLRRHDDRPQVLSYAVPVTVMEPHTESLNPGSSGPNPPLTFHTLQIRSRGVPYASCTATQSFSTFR
UniProt Q8N8Z6: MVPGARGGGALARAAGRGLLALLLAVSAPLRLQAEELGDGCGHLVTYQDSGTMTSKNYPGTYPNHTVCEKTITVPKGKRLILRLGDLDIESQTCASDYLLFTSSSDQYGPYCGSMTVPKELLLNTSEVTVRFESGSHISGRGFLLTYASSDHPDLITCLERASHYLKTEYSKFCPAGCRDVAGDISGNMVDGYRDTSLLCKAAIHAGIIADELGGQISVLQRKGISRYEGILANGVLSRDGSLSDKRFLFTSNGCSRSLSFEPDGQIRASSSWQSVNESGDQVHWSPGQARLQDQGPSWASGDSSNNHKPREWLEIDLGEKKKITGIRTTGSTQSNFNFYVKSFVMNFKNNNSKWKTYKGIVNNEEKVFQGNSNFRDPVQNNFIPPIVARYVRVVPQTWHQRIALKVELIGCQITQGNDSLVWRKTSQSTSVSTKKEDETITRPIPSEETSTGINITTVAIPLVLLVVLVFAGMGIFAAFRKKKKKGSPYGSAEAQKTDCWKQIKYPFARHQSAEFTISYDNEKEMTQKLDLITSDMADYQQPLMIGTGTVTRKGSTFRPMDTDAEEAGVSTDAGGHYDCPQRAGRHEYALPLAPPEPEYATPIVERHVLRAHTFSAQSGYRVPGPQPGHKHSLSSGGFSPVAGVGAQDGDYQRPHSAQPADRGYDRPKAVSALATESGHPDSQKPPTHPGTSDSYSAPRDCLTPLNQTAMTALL

Target	log2 fold change
CTDNEP1 (UniProt O95476)	inactive: -0.055
DAPK1 isoform 3 (UniProt P53355)	inactive: -0.03
CST4 (UniProt P01036)	inactive: 0.406
DCAF4 (UniProt Q8WV16)	inactive: -0.06
CXCL14 (UniProt O95715)	inactive: -0.181
DAPK2 isoform 2 (UniProt Q9UIK4)	inactive: -0.122
CTNS isoform 2 (UniProt O60931)	inactive: -0.114
CSRP2 (UniProt Q16527)	inactive: -0.078
CST6 (UniProt Q15828)	inactive: 0.038
CTIF (UniProt O43310)	inactive: 0.093
DBNDD1 isoform 3 (UniProt Q9H9R9)	inactive: -0.198
CSPG5 (UniProt O95196)	inactive: 0.143
CST1 (UniProt P01037)	inactive: 0.2
DCAF12 (UniProt Q5T6F0)	inactive: -0.101
CYB5A (UniProt P00167)	inactive: -0.043

Compound: C[C@@H](Oc1cc(-c2cnn(C3CCNCC3)c2)cnc1N)c1c(Cl)ccc(F)c1Cl [crizotinib]
Assay: as above
Method in brief: as §1

Target	log2 fold change
CYP24A1 (UniProt Q07973)	inactive: -0.043
CYREN (UniProt Q9BWK5)	inactive: 0.036
CXCL14 (UniProt O95715)	inactive: 0.215
DAPK2 isoform 2 (UniProt Q9UIK4)	inactive: 0.065
CYP4V2 (UniProt Q6ZWL3)	inactive: -0.087
CXorf40B (UniProt Q96DE9)	inactive: 0.028
CYBRD1 (UniProt Q53TN4)	inactive: 0.01
DAAM2 (UniProt Q86T65)	inactive: 0.087
CYTH2 (UniProt Q99418)	inactive: -0.056
DCUN1D5 (UniProt Q9BTE7)	inactive: 0.059
CWC22 (UniProt Q9HCG8)	inactive: -0.026
CYREN isoform 4 (UniProt Q9BWK5)	inactive: 0.016
CYB561 (UniProt P49447)	inactive: 0.228

Compound: C[C@@H]1COCCN1C2=NC(=NC(=C2)C3(CC3)S(=O)(=O)C)C4=C5C=CNC5=CC=C4
Assay: as above
Method in brief: as §1

Target	log2 fold change
DAPK1 isoform 3 (UniProt P53355)	inactive: -0.031
DCAF4 (UniProt Q8WV16)	inactive: 0.032
CYP4V2 (UniProt Q6ZWL3)	inactive: 0.036
CXorf40B (UniProt Q96DE9)	inactive: 0.025
CTDSPL2 (UniProt Q05D32)	inactive: 0.086
DAAM2 (UniProt Q86T65)	inactive: 0.338
CTSF (UniProt Q9UBX1)	inactive: 0.07
CST6 (UniProt Q15828)	inactive: 0.09
DCAF17 (UniProt Q5H9S7)	inactive: 0.022
CUL7 isoform 2 (UniProt Q14999)	inactive: -0.019
DCBLD1 (UniProt Q8N8Z6)	inactive: 0.166
CYTH1 (UniProt Q15438)	inactive: -0.044
CTIF (UniProt O43310)	inactive: 0.023
DBNDD1 isoform 3 (UniProt Q9H9R9)	inactive: -0.014
CSPG5 (UniProt O95196)	inactive: 0.224
CXXC5 (UniProt Q7LFL8)	inactive: -0.006
CST1 (UniProt P01037)	inactive: 0.123
CYB5A (UniProt P00167)	inactive: 0.16

Source: the supplement of paper PMC10849652
